Source: PMC7464559, “Synthesis, Optimization, Antifungal Activity, Selectivity, and CYP51 Binding of New 2-Aryl-3-azolyl-1-indolyl-propan-2-ols” (Pharmaceuticals, 2020)

Molecular target: T1, aromatase (CYP19) (Homo sapiens, UniProt P11511)
T1 construct: Microsomal protein (0.1 mg) was added to start the reaction; from tissue; host or cells: microsomes; ('human placental microsomes')
T1 sequence (P11511 1-503): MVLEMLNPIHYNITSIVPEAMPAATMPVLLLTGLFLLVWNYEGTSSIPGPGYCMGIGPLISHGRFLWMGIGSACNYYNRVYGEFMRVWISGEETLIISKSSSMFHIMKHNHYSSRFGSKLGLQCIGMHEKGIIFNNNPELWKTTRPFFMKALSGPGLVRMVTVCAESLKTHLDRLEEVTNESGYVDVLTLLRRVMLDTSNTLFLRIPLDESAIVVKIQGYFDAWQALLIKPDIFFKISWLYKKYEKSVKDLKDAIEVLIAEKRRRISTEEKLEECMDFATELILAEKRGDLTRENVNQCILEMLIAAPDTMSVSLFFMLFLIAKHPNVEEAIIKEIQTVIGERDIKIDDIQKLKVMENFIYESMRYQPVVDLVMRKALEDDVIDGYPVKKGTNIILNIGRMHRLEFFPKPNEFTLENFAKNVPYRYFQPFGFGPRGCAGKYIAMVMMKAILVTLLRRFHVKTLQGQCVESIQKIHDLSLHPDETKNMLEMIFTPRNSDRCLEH
Test: In vitro inhibition of aromatase
Type: biochemical

CC(C)(C#N)c1cc(Cn2cncn2)cc(C(C)(C)C#N)c1 [anastrozole, reference compound]
IC50: 163 nM
